Results: paper PMC9895073
Construct, isoform or probe ends are uncertain for at least one entry. A weaker result is weaker than the reference pair of the same experiment. At least one verdict was read from the data and is not stated in words by the source.

By UniProt entry, the sequences of proteins in these tests, tags left out.
UniProt P05412, whole entry: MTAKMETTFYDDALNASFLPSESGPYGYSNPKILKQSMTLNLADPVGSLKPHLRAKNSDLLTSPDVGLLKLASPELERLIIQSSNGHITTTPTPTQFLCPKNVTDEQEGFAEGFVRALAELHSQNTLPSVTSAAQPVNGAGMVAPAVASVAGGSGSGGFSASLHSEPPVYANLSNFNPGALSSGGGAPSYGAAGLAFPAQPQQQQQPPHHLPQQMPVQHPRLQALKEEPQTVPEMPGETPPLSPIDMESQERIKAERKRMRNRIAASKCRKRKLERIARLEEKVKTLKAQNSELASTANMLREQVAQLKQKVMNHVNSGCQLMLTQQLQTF

Target: JUN (3xGluGlu-JUN-His6) (UniProt P05412)
Experiment: EMSA
Conditions: 50 nM DNA, 20 mM Tris/HCl pH 7.4, 40 mM KCl, 5 mM MgCl2, 5% glycerol, 1 h at 37 °C, 6% PAGE in 0.25x TBE, recombinant protein, protein details: N-terminal 3xGluGlu, label: 5'-Cy5 on upper strand

Does “AAGAGACCAAAGGAATGAGTCATTGGAAATGCTGAGA (double strand) [JUN site 37mer, m6dA in both strands]” bind (m6dA in both strands, N6-methyl-dA at position 18 of upper strand and position 18 of lower strand)?
Result: binds more weakly

Does “AAGAGACCAAAGGAATGAGTCATTGGAAATGCTGAGA (double strand) [JUN site 37mer, unmethylated]” bind?
Result: binds
